{
  "source": "patent US20090291908A1",
  "about": "“Use of thiophoshonoformic acid and nrtis to treat viral infections” (priority 2005, published 2009)",
  "system": "Thiovir™ and foscarnet selected virus",
  "test": "Susceptibility of selected viruses",
  "format": "cell-based, HIV-1",
  "conditions": "both Thiovir™ and foscarnet selected virus",
  "note": "At least one structure is not confirmed: it was looked up by name or label, or the drawing left a doubt.",
  "data": [
    {"smiles": "Cc1cn([C@H]2C[C@H](N=[N+]=[N-])[C@@H](CO)O2)c(=O)[nH]c1=O", "note": "[Zidovudine, Azidothymidine]", "values": [
      {"measurement": "susceptibility of selected virus in words", "result": "hypersensitive"}
    ]}
  ]
}
